Results on seven sequences are retold here after publication PMC6510891, “Functional duplication of Rap1 in methylotrophic yeasts”.

For some of these results: Negatives hold for the conditions tested. Tags and fusion partners may be left off the protein sequences shown. For some of these results: The comparison behind a weaker result is the experiment's own reference, which may not be listed here.

For data set [1], the target named is T1, HpRap1A (Hansenula polymorpha DL-1) (UniProt W1Q7Z6).
T1 sequence (looked up): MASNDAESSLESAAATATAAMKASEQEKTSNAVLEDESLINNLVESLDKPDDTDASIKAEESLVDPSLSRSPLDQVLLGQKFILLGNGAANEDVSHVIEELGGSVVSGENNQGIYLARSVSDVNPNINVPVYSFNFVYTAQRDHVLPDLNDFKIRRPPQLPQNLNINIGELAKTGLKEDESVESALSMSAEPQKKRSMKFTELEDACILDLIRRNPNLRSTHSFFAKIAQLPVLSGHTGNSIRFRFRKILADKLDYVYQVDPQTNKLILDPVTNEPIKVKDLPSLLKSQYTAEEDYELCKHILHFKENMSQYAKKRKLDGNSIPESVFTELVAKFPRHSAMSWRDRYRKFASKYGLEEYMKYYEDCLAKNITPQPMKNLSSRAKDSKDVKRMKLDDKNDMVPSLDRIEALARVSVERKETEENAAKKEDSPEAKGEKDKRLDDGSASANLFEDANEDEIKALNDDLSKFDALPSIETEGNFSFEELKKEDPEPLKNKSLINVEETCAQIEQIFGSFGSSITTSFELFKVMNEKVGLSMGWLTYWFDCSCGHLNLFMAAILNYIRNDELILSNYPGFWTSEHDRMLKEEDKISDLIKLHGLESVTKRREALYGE
Description: SPR. Particulars: NB in table, text: at least 30-fold lower efficiency than HpRap1B; SPR: 10 mM HEPES-NaOH pH 7.5, 150 mM NaCl, 0.5 mM DTT, 0.05% Tween 20, 1 mg/ml BSA, 0.02 mg/ml salmon sperm DNA; competition 2 nM protein with 20 or 200 nM competitor; recombinant protein; residues 1-613.

The target of data set [2] is T2, HpRap1B (Hansenula polymorpha DL-1) (UniProt W1QDN2).
T2 sequence (looked up): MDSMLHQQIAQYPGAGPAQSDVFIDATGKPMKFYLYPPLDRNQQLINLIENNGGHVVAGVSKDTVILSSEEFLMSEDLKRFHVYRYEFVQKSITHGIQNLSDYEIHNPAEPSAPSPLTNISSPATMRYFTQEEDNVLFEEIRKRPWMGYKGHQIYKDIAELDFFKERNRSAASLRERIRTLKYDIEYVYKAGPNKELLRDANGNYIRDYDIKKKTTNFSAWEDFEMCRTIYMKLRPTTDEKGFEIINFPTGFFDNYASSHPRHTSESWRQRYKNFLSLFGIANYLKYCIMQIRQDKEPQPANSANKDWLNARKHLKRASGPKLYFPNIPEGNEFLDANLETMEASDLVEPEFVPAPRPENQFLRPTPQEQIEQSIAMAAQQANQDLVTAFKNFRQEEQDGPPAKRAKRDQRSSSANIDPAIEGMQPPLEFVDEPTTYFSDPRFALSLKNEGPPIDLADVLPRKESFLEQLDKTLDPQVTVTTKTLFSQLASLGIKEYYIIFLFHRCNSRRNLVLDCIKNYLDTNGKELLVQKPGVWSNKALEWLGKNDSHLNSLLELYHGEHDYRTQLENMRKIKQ
Description: competition SPR. The conditions noted are these: score + vs PICKU surface; EMSA: 20 mM HEPES-NaOH pH 7.5, 50 mM NaCl, 0.2 mg/ml BSA, 5% glycerol, 0.1 mg/ml salmon sperm DNA, room temperature; recombinant protein; residues 1-576. In general terms: In EMSA bound probe runs differently from free probe, usually more slowly.

Data set [3] deals with T1, HpRap1A (Hansenula polymorpha DL-1). Description: competition SPR. Particulars: score + vs VIIrAbs surface; EMSA: 20 mM HEPES-NaOH pH 7.5, 50 mM NaCl, 0.2 mg/ml BSA, 5% glycerol, 0.1 mg/ml salmon sperm DNA, room temperature; recombinant protein; residues 1-613.

Regarding “GGGTGGCGGGGTGGCGGGGTGGCGGGGTGGCG / CGCCACCCCGCCACCCCGCCACCCCGCCACCCCCTCTACGTCCTCCTGCTCC [HANPO4 (SPR)]”, the binding result in data set [1] is “no binding”.

In the case of “CTCGCTTGGTGTACGGATGCAGA (double strand) [CANMA]”, in data set [2], the binding result is recorded as “binds more weakly”.

As to “TGTGAGTGGTGTGAGTGGTGTGAGTGG (double strand) [PACTA]”, the binding result in data set [2] was “binds more weakly”.

“GTGTGTGGGTGTGTGGGTGTGTG (double strand) [SACCE (competitor)]”: the binding result in data set [3] is “binds more weakly”.

As to “GGGTGGCGGGGTGGCGGGGTGGCGGGGTGGCG (double strand) [HANPO4 (competitor)]”, the binding result in data set [2] is given as “binds more weakly”.

Consider “ACTTCTTGGTGTACGGATGTCTA (double strand) [CANAL (competitor)]”, for which the binding result in data set [2] was “binds more weakly”.

As for “GTGTTGAGGTGTAGGGATGTTGA (double strand) [DEBHA]”, in data set [2], the binding result is given as “binds more weakly”.
